Values from PubChem BioAssay AID1159584 (Peter MacCallum Cancer Centre, 2016)
This is a random part of about 18,000 reagents. Reagents against one gene are numbered here. Further read-outs or replicates are left out here. Not stated in the record: the amount of reagent, the time to read-out.

Assay: 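Genes that CDH1-null MCF10A cells selectively depend on to survive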 (primary screen)
System: human MCF10A breast epithelial cells, parental and CDH1-null
Knock-down reagent: siRNA against human genes
Measured: 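ATP luminescence (CellTiter-Glo) viability per line relative to mean mock wells over all plates, and the ratio of CDH1-null to parental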
Direction: CDH1-null / parental viability ratio: higher = CDH1-null cells survive relatively better than parental; CDH1-null viability vs mock: higher = more viable CDH1-null cells

{"Gene":"PAPLN","reagent no.":1,"CDH1-null / parental viability ratio":1.04,"CDH1-null viability vs mock (fraction of mock)":0.98}
{"Gene":"CTSE","reagent no.":1,"CDH1-null / parental viability ratio":1.17,"CDH1-null viability vs mock (fraction of mock)":0.62}
{"Gene":"SLC22A23","reagent no.":1,"CDH1-null / parental viability ratio":1.12,"CDH1-null viability vs mock (fraction of mock)":1.17}
{"Gene":"RPN1","reagent no.":1,"CDH1-null / parental viability ratio":0.98,"CDH1-null viability vs mock (fraction of mock)":0.94}
{"Gene":"CAPS","reagent no.":1,"CDH1-null / parental viability ratio":0.98,"CDH1-null viability vs mock (fraction of mock)":0.88}
{"Gene":"RCC1","reagent no.":1,"CDH1-null / parental viability ratio":0.93,"CDH1-null viability vs mock (fraction of mock)":0.83}
{"Gene":"RCC1","reagent no.":2,"CDH1-null / parental viability ratio":1.29,"CDH1-null viability vs mock (fraction of mock)":0.72}
{"Gene":"LDHAL6A","reagent no.":1,"CDH1-null / parental viability ratio":1.17,"CDH1-null viability vs mock (fraction of mock)":0.97}
{"Gene":"OR4M1","reagent no.":1,"CDH1-null / parental viability ratio":1.14,"CDH1-null viability vs mock (fraction of mock)":0.66}
{"Gene":"TMEM132E-DT","reagent no.":1,"CDH1-null / parental viability ratio":0.79,"CDH1-null viability vs mock (fraction of mock)":0.66}
{"Gene":"CDCA7L","reagent no.":1,"CDH1-null / parental viability ratio":1.19,"CDH1-null viability vs mock (fraction of mock)":0.95}
{"Gene":"EPO","reagent no.":1,"CDH1-null / parental viability ratio":1.21,"CDH1-null viability vs mock (fraction of mock)":0.51}
{"Gene":"LY6S-AS1","reagent no.":1,"CDH1-null / parental viability ratio":1.27,"CDH1-null viability vs mock (fraction of mock)":0.28}
{"Gene":"LGI1","reagent no.":1,"CDH1-null / parental viability ratio":1.31,"CDH1-null viability vs mock (fraction of mock)":0.63}

2 of these entries, reformatted.
OR4M1 | CDH1-null / parental viability ratio = 1.14; CDH1-null viability vs mock (fraction of mock) = 0.66
TMEM132E-DT | CDH1-null / parental viability ratio = 0.79; CDH1-null viability vs mock (fraction of mock) = 0.66
